Results published in paper PMC6066219 (PLoS ONE, 2018).
Starred links: 1 amine or outer side, 2 acyl side, 3 side chain; linkers in the order of their positions; H or OH if unused. Positions of bridges follow the written chain, without caps; N, C: chain ends. Non-standard residues stand in square brackets, D forms with d. Chains are numbered I, II in the order given. *: point of attachment. X2 = CC(=O)NC1CCCN(O)C(=O)C=C(C)CCOC(=O)C(NC(=O)CCN2C(=O)CC([*:1])C2=O)CCCN(O)C(=O)C=C(C)CCOC(=O)C(NC(=O)CCN2C(=O)CC([*:2])C2=O)CCCN(O)C(=O)C=C(C)CCOC1=O; X3 = CC(=O)NC1CCCN(O)C(=O)C=C(C)CCOC(=O)C(NC(=O)CCN2C(=O)CC(*)C2=O)CCCN(O)C(=O)C=C(C)CCOC(=O)C(NC(C)=O)CCCN(O)C(=O)C=C(C)CCOC1=O; Nle = CCCC[C@H](N)C(=O)O; Mpa = O=C(O)CCS

Test: general procedure: Fmoc solid-phase peptide synthesis; rink amide MBHA resin (100–200 mesh); HATU/HOAt
Settings: for isolated mass / isolated yield: whole synthesis; for isolated yield: scale of the general procedure 62.5 μmol; for conjugation yield: conjugation step

Substance | isolated mass [mg] | isolated yield [%] | conjugation yield [%]
3-MP^0-[D-Glu^1,desGlu^2-6]-Ala-Tyr-Gly-Trp-Met-Asp-Phe-NH2 | 37.6 | 54 | 
[Mpa](X3)[dE]AYGW[Nle]DF-NH2 (SMILES CCCC[C@H](NC(=O)[C@H](Cc1c[nH]c2ccccc12)NC(=O)CNC(=O)[C@H](Cc1ccc(O)cc1)NC(=O)[C@H](C)NC(=O)[C@@H](CCC(=O)O)NC(=O)CCSC1CC(=O)N(CCC(=O)NC2CCCN(O)C(=O)C=C(C)CCOC(=O)C(NC(C)=O)CCCN(O)C(=O)C=C(C)CCOC(=O)C(NC(C)=O)CCCN(O)C(=O)C=C(C)CCOC2=O)C1=O)C(=O)N[C@@H](CC(=O)O)C(=O)N[C@@H](Cc1ccccc1)C(N)=O) |  |  | 70
3-MP^0-[D-Glu^1,desGlu^2-6]-Ala-Tyr-Gly-Trp-Nle-Asp-Phe-NH2 | 32.1 | 47 | 
I: [Mpa][dE]AYGW[Nle]DF-NH2 / II: [Mpa][dE]AYGW[Nle]DF-NH2 (linker I:1-II:1 via X2; SMILES CCCC[C@H](NC(=O)[C@H](Cc1c[nH]c2ccccc12)NC(=O)CNC(=O)[C@H](Cc1ccc(O)cc1)NC(=O)[C@H](C)NC(=O)[C@@H](CCC(=O)O)NC(=O)CCSC1CC(=O)N(CCC(=O)NC2CCCN(O)C(=O)C=C(C)CCOC(=O)C(NC(=O)CCN3C(=O)CC(SCCC(=O)N[C@H](CCC(=O)O)C(=O)N[C@@H](C)C(=O)N[C@@H](Cc4ccc(O)cc4)C(=O)NCC(=O)N[C@@H](Cc4c[nH]c5ccccc45)C(=O)N[C@@H](CCCC)C(=O)N[C@@H](CC(=O)O)C(=O)N[C@@H](Cc4ccccc4)C(N)=O)C3=O)CCCN(O)C(=O)C=C(C)CCOC(=O)C(NC(C)=O)CCCN(O)C(=O)C=C(C)CCOC2=O)C1=O)C(=O)N[C@@H](CC(=O)O)C(=O)N[C@@H](Cc1ccccc1)C(N)=O) |  |  | 79
